# Assay results: patent publication US6749856B1, “Mucosal cytotoxic T lymphocyte responses” (priority 1997, dated 2004)
# Entries after “also recorded” stand apart in the source; their conditions may differ.
# Legend:
# [1] = system: P18IIIB-I10 peptide-pulsed 51Cr labeled P815 targets; experiment: CTL 51Cr release assay with PP, LP or SP effector cells of immunized mice; assay type: in vivo, BALB/c mice; settings: for P18-specific CTL response in intestinal PP and spleen: weekly for four weeks, day 35 or six months
# [2] = system: 15-12 cells (BALB/c 3T3 fibroblasts transfected with HIV-1IIIB gp160); experiment: CTL 51Cr release assay on targets endogenously expressing HIV-1 gp160; assay type: in vivo, BALB/c mice; settings: CTL elicited by IR immunization
# Source text: Three different cell lines were used as target cells: 15-12 cells, 3T3 18 Neo BALB/c cells and P815 cells. 15-12 cells are BALB/c 3T3 fibroblasts transfected with a vector encoding HIV-1 gp160 (Takahashi et al. Proc. Natl. Acad. Sci. USA 8:3105 (1988)); 3T3 18 Neo BALB/c cells are BALB/c 3T3 fibroblasts transfected with an expression vector containing a Neor gene but no gp160 gene; and P815 cells are untransfected cells that present antigenic peptides added to the culture. CTL lysis of gp160 expressing 15-12 cells (closed squares in right panels) was compared to that of control gp160 non-expressing 3T3 18 Neo BALB/c cells (open diamonds right panels). […] The percent specific 51Cr release was calculated as described above. […]
# Cytotoxic T lvmphocyte assay Immune cells from SP, PP, LP were cultured at 5×10^6 per/milliliter in 24-well culture plates in complete T cell medium (CTM): RPMI 1640 containing 10% FBS, 2 mM L-glutamine, penicillin (100 U/ml), streptomycin (100 μg/ml), and 5×10^−5 M 2-mercaptoethanol. […] Cytolytic activity of CTL lines was measured by a 4-hour assay with ^51Cr labeled targets. […] The percent specific ^51Cr release was calculated as 100× (experimental release-spontaneous release)/(Maximum release-spontaneous release). Maximum release was determined from supernatants of cells that were lysed by addition of 5% Triton-X 100. […]
# [3] = system: vaccinia virus expressing gp160 IIIB (vPE16); design: species or system BALB/c mice; settings: mouse, in vivo
# [4] = system: vaccinia virus expressing β-galactosidase (vSC8); design: species or system BALB/c mice; settings: mouse, in vivo
# [5] = system: mucosal P18-specific CD8+ CTL; experiment: IFNγ production by mucosal CD8+ CTL after stimulation with specific peptide in vitro; assay type: cell-based, BALB/c mice; settings: stimulation with specific peptide in vitro for 48 hours
# Source text: The difference may reflect a higher affinity of the minimal 10-mer P18IIIB-I10, compared to P18MN-T10, for H-2D^d (Takahashi et al., Science 246:118-121 (1989); Takeshita et al., J. Immunol. 154:1973-1986 (1995)). […] On the basis of these observations, the PCLUS3-18IIIB construct was used in the protection experiments described below.
# [6] = IR, 50 μg/mouse x4 with CT 1 μg/mouse, day 35
sequence,measurement,setting,value
KQIINMWQEVGKAMYAPPISGQIRRIHIGPGRAFYTTKN [PCLUS3-18MN],level of CTL response compared with IR immunization with PCLUS3-18IIIB,[1]; IR with CT,significantly lower
same,P18-specific CTL response in intestinal PP and spleen,[1]; IR with CT,induces a P18-specific CTL response
KQIINMWQEVGKAMYAPPISGQIRRIQRGPGRAFVTIGK [PCLUS3-18IIIB],"level of splenic CTL activity, IR versus IN immunization","[1]; 50 μg/mouse x4, SP, six months after first dose",higher than that induced by IN immunization
same,"CTL activity after immunization via all three mucosal routes (IR, IN, IG)","[1]; 50 μg/mouse x4, day 35",detected in both PP and SP
same,"level of CTL activity in PP, IR versus other mucosal routes (IN and IG)","[1]; 50 μg/mouse x4, day 35",significantly higher
same,"level of CTL activity in SP, IR versus other mucosal routes (IN and IG)","[1]; 50 μg/mouse x4, day 35",much higher
same,CTL activity after systemic immunization (SC),"[1]; 50 μg/mouse x4, day 35, PP and SP",only resulted in significant CTL activity in SP
same,P18-specific CTL response in intestinal PP and spleen,[1]; IR with CT,induces a P18-specific CTL response
same,"CTL response, peptide alone","[1]; IR, 50 μg/mouse x4, no adjuvant or cytokine, day 35, PP, LP, SP",induced a significant response
same,"CTL activity in SP, PP and LP cells from IFNγ−/− mice",[1]; [6],lack of detectable CTL activity
same,"CTL activity in SP, PP and LP cells from wild-type BALB/c mice",[1]; [6],potent CTL activity
same,"time after immunization at which antigen-specific CTL were still detected in PP, LP and SP","[1]; IR, 4 doses 50 μg/mouse, days 0, 7, 14, 21",at least 6 months
same,"CTL response with co-administration of CT, relative to peptide alone","[1]; IR, peptide in combination with CT, day 35, PP, LP, SP",enhanced
same,induction of CTL after systemic immunization,"[1]; s.c. in incomplete Freund's adjuvant, PP, LP, SP",induced CTL in the spleen but not in the mucosal immune system
same,killing of 15-12 gp160 IIIB-transfected fibroblast targets,[2],killed these targets
same,protection against IR challenge with vPE16 6 months after immunization,[3],exhibit protection
same,"protection against IR challenge with vPE16, IR immunization",[3],protected mice; also recorded: did protect
same,"protection against mucosal challenge with vPE16, SC immunization",[3],did not protect
same,reduction in viral pfu,[3],4 log
same,reduction in viral pfu in ovaries compared to unimmunized animals,[3],4.5 log
same,protection against IR challenge with vSC8,[4],did not protect
same,"production of IFNγ by mucosal specific CD8+ CTL, P18IIIB-specific compared to P18-MN-specific",[5],much higher production of IFNγ
